## Library screen at single concentrations

Amino acid sequences for entries named in this document (tags omitted). Residues count along the entry.
UniProt P9WPC5, whole entry: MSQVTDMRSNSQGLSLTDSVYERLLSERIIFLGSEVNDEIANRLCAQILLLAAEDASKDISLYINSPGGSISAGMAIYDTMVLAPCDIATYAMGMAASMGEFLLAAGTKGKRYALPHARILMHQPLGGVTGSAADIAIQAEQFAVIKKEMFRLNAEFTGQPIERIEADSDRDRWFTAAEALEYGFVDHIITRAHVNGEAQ
UniProt P9WPC3, whole entry partner: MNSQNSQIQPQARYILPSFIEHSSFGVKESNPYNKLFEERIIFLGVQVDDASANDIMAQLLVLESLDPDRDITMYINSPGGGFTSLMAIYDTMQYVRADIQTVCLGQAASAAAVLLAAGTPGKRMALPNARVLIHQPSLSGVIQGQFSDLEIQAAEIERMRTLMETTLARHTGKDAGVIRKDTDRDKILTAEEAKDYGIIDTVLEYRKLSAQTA
UniProt Q4DA54, 1-478: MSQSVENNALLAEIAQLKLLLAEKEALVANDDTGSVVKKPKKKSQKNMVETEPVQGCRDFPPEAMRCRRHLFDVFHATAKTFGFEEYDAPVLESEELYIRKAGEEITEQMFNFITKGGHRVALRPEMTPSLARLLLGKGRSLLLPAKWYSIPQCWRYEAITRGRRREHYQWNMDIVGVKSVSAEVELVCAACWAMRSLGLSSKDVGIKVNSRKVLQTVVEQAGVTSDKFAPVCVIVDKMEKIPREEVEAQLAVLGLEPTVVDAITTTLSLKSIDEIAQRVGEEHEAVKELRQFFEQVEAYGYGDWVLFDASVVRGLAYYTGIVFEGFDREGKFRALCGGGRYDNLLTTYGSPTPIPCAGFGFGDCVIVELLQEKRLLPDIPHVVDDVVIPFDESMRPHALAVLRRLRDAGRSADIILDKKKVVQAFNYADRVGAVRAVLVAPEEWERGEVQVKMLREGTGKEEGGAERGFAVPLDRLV
UniProt Q8IDJ8, 1-583: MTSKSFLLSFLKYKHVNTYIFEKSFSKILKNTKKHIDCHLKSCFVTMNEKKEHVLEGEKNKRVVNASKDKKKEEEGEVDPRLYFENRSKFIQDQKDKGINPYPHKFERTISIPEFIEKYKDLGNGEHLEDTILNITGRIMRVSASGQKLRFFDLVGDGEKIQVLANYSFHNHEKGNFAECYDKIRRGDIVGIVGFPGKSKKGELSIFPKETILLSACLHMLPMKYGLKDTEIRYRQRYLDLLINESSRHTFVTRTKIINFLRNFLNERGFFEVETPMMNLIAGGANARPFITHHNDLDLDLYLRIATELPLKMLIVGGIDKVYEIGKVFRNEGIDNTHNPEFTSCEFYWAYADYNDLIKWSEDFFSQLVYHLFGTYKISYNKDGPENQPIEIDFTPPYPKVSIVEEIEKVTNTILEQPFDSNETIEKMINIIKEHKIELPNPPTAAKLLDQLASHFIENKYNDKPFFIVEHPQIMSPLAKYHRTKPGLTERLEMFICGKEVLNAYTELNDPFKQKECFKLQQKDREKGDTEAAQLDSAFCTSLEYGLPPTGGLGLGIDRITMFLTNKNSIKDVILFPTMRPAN
UniProt P9WNZ1, whole entry: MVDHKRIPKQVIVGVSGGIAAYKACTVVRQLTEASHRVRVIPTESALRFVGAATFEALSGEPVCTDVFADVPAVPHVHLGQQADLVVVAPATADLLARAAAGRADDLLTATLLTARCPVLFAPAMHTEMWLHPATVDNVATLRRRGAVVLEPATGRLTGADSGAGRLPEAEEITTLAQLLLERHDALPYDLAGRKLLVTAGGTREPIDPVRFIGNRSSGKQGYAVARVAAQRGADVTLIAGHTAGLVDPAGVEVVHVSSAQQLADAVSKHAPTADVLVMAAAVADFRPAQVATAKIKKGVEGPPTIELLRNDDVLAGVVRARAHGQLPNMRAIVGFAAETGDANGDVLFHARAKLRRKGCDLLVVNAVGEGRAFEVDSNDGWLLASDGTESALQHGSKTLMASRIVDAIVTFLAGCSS
UniProt I6X8D2, whole entry: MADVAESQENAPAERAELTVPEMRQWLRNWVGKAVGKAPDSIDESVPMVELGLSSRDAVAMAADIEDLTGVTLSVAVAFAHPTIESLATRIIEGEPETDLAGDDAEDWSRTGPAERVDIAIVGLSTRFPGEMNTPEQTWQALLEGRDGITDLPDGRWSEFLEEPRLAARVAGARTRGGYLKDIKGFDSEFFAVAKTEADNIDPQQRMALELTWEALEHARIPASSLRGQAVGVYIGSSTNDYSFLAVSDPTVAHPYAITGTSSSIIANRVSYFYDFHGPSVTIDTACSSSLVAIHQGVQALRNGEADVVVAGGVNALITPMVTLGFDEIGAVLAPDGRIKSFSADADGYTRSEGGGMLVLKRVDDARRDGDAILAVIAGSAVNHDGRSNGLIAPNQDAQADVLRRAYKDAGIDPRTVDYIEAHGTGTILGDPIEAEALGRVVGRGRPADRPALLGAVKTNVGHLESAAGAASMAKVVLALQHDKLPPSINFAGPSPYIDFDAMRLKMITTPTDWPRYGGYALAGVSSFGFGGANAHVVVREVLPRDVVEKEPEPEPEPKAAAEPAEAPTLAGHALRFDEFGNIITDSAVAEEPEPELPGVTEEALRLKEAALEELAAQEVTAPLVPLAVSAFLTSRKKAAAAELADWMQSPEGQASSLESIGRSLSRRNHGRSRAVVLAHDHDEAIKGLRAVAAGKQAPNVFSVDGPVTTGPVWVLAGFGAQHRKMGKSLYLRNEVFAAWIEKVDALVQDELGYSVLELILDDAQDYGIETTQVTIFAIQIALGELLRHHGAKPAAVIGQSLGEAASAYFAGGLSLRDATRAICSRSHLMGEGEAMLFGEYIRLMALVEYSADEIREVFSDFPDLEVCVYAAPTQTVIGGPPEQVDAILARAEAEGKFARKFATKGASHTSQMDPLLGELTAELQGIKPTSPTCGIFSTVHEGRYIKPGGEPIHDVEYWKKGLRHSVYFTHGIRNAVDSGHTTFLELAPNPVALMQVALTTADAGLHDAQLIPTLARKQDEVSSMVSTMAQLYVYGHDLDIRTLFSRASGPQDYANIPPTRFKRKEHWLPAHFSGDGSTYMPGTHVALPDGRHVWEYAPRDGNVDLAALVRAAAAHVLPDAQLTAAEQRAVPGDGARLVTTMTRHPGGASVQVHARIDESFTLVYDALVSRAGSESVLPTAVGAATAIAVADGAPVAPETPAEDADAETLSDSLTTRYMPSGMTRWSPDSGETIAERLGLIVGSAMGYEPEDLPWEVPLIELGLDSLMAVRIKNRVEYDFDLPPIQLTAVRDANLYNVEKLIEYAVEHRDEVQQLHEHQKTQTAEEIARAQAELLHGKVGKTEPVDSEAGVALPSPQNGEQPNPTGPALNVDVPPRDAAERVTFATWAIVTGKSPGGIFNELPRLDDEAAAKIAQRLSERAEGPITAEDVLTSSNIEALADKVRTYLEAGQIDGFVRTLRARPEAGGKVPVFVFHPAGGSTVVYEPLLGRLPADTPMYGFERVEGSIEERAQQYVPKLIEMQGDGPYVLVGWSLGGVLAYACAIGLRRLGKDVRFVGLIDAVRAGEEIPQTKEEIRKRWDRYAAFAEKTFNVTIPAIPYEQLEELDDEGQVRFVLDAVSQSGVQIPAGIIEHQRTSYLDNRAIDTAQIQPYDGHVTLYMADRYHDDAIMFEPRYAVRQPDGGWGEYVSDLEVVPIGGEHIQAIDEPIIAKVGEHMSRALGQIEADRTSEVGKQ

Source: ChEMBL document CHEMBL3988442, “University of Dundee, Small-Polar-MMV Screening Library” (2021).

The filed quantity is “Percent Effect” (%). The controls that fix the scale are not given in the record; negative values are as filed. This is an unselected part of the compounds tested. A dash means the value is not listed here; it may have been measured.

ClpP1P2: 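Protease assay of ClpP1P2, read by the AMC dye that it sets free. Target: ClpP1P2, Mycobacterium tuberculosis (UniProt P9WPC5 and UniProt P9WPC3). Compounds at 50 µM. Direction is inferred from only a few compounds that gave an IC50; most scored high, so higher reads as stronger inhibition. Most other retested compounds had strongly negative values. Of about 69,000 compounds tested this way, about 10 (0.015%) reached 50% or more in at least one test.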
TcHisRS: 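Enzyme assay of histidyl-tRNA synthetase; the read-out is not stated. Target: Histidine-tRNA ligase, Trypanosoma cruzi CL Brener (UniProt Q4DA54). Concentration: 30 µM. The record gives no direction; compounds that gave an IC50 in retests scored well above the rest, so higher reads as stronger inhibition. Of about 69,000 compounds tested this way, about 31 (0.045%) reached 50% or more in at least one test.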
PfKRS1: 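Lysine-tRNA ligase, Plasmodium falciparum 3D7 (UniProt Q8IDJ8). Enzyme assay of the cytosolic lysyl-tRNA synthetase in 384-well plates, read by luminescence. Compounds at 30 µM. Direction is inferred from only a few compounds that gave an IC50; most scored high, so higher reads as stronger inhibition. About 69,000 compounds were tested under these conditions; 0.071% (about 49) showed 50% or more at least once.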
CoaBC: 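Enzyme assay of CoaBC with a phosphate dye (Biomol Green) read at 650 nm. Target: Coenzyme A biosynthesis protein CoaBC, Mycobacterium tuberculosis (UniProt P9WNZ1). Concentration: 30 µM. Direction is inferred from only a few compounds that gave an IC50; most scored high, so higher reads as stronger inhibition. Most strong results did not repeat in a second test. About 67,000 compounds were tested under these conditions; 0.06% (about 40) showed 50% or more at least once.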
Leishmania in macrophages: 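Cell assay of Leishmania donovani living inside macrophages; the read-out is not stated. Concentration: 30 µM. The record gives no direction; compounds that gave an IC50 in retests scored well above the rest, so higher reads as stronger inhibition. About 69,000 compounds were tested under these conditions; 1.5% (about 1,000) showed 50% or more at least once.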
Pks13 thioesterase: 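Enzyme assay of the thioesterase domain of polyketide synthase 13; the read-out is not stated. Target: Polyketide synthase Pks13, Mycobacterium tuberculosis (UniProt I6X8D2). Compounds at 30 µM. The record gives no direction; the compounds picked for IC50 retests had high values, so higher reads as stronger inhibition. Size under these conditions: about 67,000 compounds, about 300 of them at 50% or above in at least one test.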

structure,ClpP1P2,TcHisRS,PfKRS1,CoaBC,Leishmania in macrophages,Pks13 thioesterase
Nc1ccc(-c2ccc(F)cc2Cl)cn1,-1.748%,4.372%,2.783%,-0.2179%,21.03%,-34.27%
Cc1ccc(F)c(C(=O)N2C[C@@H](C(=O)O)[C@H](c3ccccc3)C2)c1Cl,-6.16%,0%,5.499%,5.221%,16.06%,-13.37%
[H][C@]12CC[C@@]3(N=C(C)N(C)C3=O)[C@@]1([H])CN(C(=O)NCC(C)C)C2,-,-,-,-,16.57%,-
O=C(CCCc1cn[nH]c1)N1C[C@@H](CN2CCOCC2)[C@@H](CO)C1,-9.636%,4.132%,-0.8694%,-9.595%,-21.91%,-2.434%
Cc1ccc(CN(Cc2ccccn2)C(=O)C2CCCCCN2C)s1 (stereo not shown),9.299%,-22.55%,-3.232%,0.4878%,17.08%,11.45%
N#Cc1cnc(NC2CCN(C(=O)C3CCCCC3)CC2)c(Cl)c1,-6.444%,4.865%,3.002%,9.091%,3.698%,-5.722%
Cc1nc(CN2CCCN(C(=O)c3cnccn3)CC2)cs1,-15.2%,5.539%,0.05885%,4.608%,24.39%,-6.968%
Cc1cc(C(=O)NCCc2c(C)nn(C)c2C)nc(N2CCCCC2)n1,-4.089%,-0.7605%,-0.1671%,-1.112%,19.13%,-1.725%
NC(=O)COc1cccc(C(=O)N2CCCC(n3ccnc3)C2)c1 (stereo not shown),5.121%,-4.215%,6.702%,9.106%,14.4%,-35.01%
Cc1ccccc1C1(C(=O)NCCN2CCOCC2)CCOCC1,-3.112%,2.053%,0.3949%,-1.579%,24.15%,-14.24%
COc1cc(NC(=O)c2ccc(Cl)cc2F)c(C(=O)N(C)C)cc1OC,14.63%,10%,4.414%,7.438%,27.5%,-0.7235%
Cc1ccc(C(=O)NCc2ccnc(N3CCN(C)CC3)c2)cn1,-3.676%,0.4926%,8.248%,-12.97%,15.92%,-
COCCOCCNc1cncc(Br)c1,-8.402%,7.389%,8.614%,5.38%,23.52%,-23.65%
CC(=O)NCCC(Cc1ccccc1)c1ccco1 (stereo not shown),-17.95%,3.125%,2.392%,-0.9206%,2.056%,-3.329%
Cc1cccc(CNC2CCN(CCc3ccncc3)CC2)c1C,3.975%,3.261%,6.783%,-10.69%,74.34%,-22.93%
CCn1cc(CNCC(c2ccc(Cl)cc2)n2cccn2)cn1 (stereo not shown),-14.41%,4.167%,-0.6631%,-2.532%,-4.234%,-8.243%
CN(C)S(=O)(=O)N1CCN(C(=O)c2ccc3ccn(C)c3c2)CC1,-10.95%,-0.8264%,-0.7753%,10.09%,15.31%,-4.405%
O=C(O)C(F)(F)F.[H][C@@]12COC[C@]1([H])[C@@H](OCC(=O)N(C)C)CN2Cc1ccoc1,-,-,-,-,10.55%,-
C[C@H]1CN(C(=O)c2ccc[nH]2)C[C@@]12CCN(c1ccsc1)C2=O,1.308%,7.843%,1.948%,3.75%,40.58%,-29.12%
CCNC(=O)C1(Cc2cc(-c3ccccc3)no2)CCCN(C(C)=O)C1 (stereo not shown),-13.61%,-1.149%,-0.7078%,3.641%,-13.19%,-30.49%
Cc1nc(C)n(CC2CCCN2Cc2nc3ccccc3c(=O)[nH]2)n1 (stereo not shown),-38.04%,-1.69%,-1.594%,-54.07%,-2.505%,-14.68%
[H][C@@]12CN(Cc3nccs3)C[C@]1([H])CN(C(=O)c1cnc(C)cn1)C2,-,-,-,-,49.62%,-
[H][C@@]12OCCN(S(=O)(=O)c3cn(C)cn3)[C@@]1([H])CC[C@H]2OC,-,-,-,-,-7.275%,-
O=S(=O)(NCCN1CC=CC1)c1ccc(Cl)cc1,-0.06279%,10.53%,1.367%,-,9.149%,-24.82%
Cc1nc(-c2ccc(S(=O)(=O)N3CCC4(CC3)OCCO4)cc2)co1,-18.72%,1.98%,-10.02%,-0.6053%,24.36%,-3.878%
CN1C[C@@H](C(=O)N(C)C)[C@@]2(CCc3ccccc3C(=O)N2)C1.Cl,-,-,-,-,37.37%,-
CS(=O)(=O)NCCCNC(=O)NCc1ccccc1,9.875%,1.127%,-0.02018%,8.27%,13.69%,-19.56%
Cc1nc(CN2CCCC3(CCN(c4cnn(C)c4)C3=O)C2)cs1.O=C(O)C(F)(F)F (stereo not shown),-,-,-,-,11.98%,-
CO[C@H]1C[C@@H]2CN(C(=O)c3ccc(C)s3)C[C@@H]2C1,-14.16%,8.046%,2.876%,-4.306%,-,-2.222%
COCCC1(CNC(=O)Nc2ccnc(C)c2)CCCC1,-11.77%,4.327%,2.124%,-0.6361%,-8.668%,-6.658%
CC[C@H]1N(Cc2ccc(OC)cc2)CCC[C@]12CCC(=O)N2C,-6.608%,-2.404%,0.8145%,-3.294%,20.96%,-13.48%
COc1ccc(CN2CCN(C(=O)c3ccc(C)n3C)CC2)cc1,-17.65%,-14.12%,2.609%,0.7833%,23.81%,-8.954%
O=C(O)C(F)(F)F.[H][C@@]12CN(C(=O)c3cccn3C)C[C@]1([H])C(=O)N(Cc1csc(C)n1)C2,-,-,-,-,18.73%,-
CC(C)C(C)n1nccc1NC(=O)Cn1cnc2ccccc21 (stereo not shown),-3.818%,1.98%,4.461%,-2.309%,17.12%,-9.946%
COc1ncc(-c2nccn2-c2ccccc2CN2CCOCC2)cn1,7.173%,5.806%,3.523%,1.691%,-0.3643%,-
Cc1cc(S(=O)(=O)NCC[S+](C)[O-])c(F)cc1F (stereo not shown),-5.213%,-0.9901%,-3.317%,4.854%,-3.09%,-0.5751%
CCC1CN(C(=O)c2cccnc2O)CCC(=O)N1Cc1ccccc1 (stereo not shown),-11.11%,1.02%,2.191%,1.091%,-18.67%,-17.7%
Cc1nc(CNCC(C)c2nc3ccccc3o2)cs1 (stereo not shown),-7.037%,3.333%,-0.2639%,8.949%,3.722%,-8.909%
Cc1noc([C@@H]2C[C@H]3OCC[C@H]3N(Cc3sccc3C)C2)n1,9.206%,7.882%,3.669%,-0.2538%,-,-12.55%
C=Cc1cccc(CN(Cc2cnn(C)c2)C2CC2)c1,13.47%,-6.098%,0.4825%,3.671%,-54.35%,9.249%
CN(Cc1ccco1)[C@@H]1CN(Cc2ccoc2)C[C@@H]2CCCO[C@@H]21,1.796%,9.091%,7.009%,-5.042%,-,-8.909%
NCC(=O)N1CCC(c2cccc(Oc3ccccc3)n2)CC1,-3.484%,17.67%,1.648%,12.59%,47.29%,3.209%

5 of the entries, repeated:

structure	ClpP1P2	TcHisRS	PfKRS1	CoaBC	Leishmania in macrophages	Pks13 thioesterase
O=C(CCCc1cn[nH]c1)N1C[C@@H](CN2CCOCC2)[C@@H](CO)C1	-9.636%	4.132%	-0.8694%	-9.595%	-21.91%	-2.434%
COc1ccc(CN2CCN(C(=O)c3ccc(C)n3C)CC2)cc1	-17.65%	-14.12%	2.609%	0.7833%	23.81%	-8.954%
NCC(=O)N1CCC(c2cccc(Oc3ccccc3)n2)CC1	-3.484%	17.67%	1.648%	12.59%	47.29%	3.209%
Cc1ccc(F)c(C(=O)N2C[C@@H](C(=O)O)[C@H](c3ccccc3)C2)c1Cl	-6.16%	0%	5.499%	5.221%	16.06%	-13.37%
C[C@H]1CN(C(=O)c2ccc[nH]2)C[C@@]12CCN(c1ccsc1)C2=O	1.308%	7.843%	1.948%	3.75%	40.58%	-29.12%